Results as given in patent US20210401823A1, “INHIBITORS AND ANTAGONISTS OF GPR84 FOR THE TREATMENT OF ENDOMETRIOSIS” (Bayer Pharma Aktiengesellschaft, priority 2017, published 2021).

Test: Determination of MCFA in endometrial tissue (GC/MS)
Settings: n = 5
[1] = Lesions (ectopic endometrial tissue)

CCCCCCCCCC(=O)O [Decanoic acid, reference compound]
Concentrations of MCFA (Controls (eutopic endometrium)): 0.3185 µM
Concentrations of MCFA [1]: 0.5103 µM

CCCCCCCCCCCCCC(=O)O [Myristic Acid]
Concentrations of MCFA (Controls (eutopic endometrium)): 6.784 µM
Concentrations of MCFA [1]: 6.596 µM
